No constants are given. Whether binding was seen depends on the method and setting. Binding seen in cells or lysates may run through a third protein. Here binding means that the protein was enriched with, or labelled near, the bait; the list need not be complete. For part of these data: A no says only that the protein was not detected with the bait. For part of these data: Tags and fused reporters may be left off the sequences shown.

Amino acid sequences for entries named in this document (tags omitted).
UniProt Q60722: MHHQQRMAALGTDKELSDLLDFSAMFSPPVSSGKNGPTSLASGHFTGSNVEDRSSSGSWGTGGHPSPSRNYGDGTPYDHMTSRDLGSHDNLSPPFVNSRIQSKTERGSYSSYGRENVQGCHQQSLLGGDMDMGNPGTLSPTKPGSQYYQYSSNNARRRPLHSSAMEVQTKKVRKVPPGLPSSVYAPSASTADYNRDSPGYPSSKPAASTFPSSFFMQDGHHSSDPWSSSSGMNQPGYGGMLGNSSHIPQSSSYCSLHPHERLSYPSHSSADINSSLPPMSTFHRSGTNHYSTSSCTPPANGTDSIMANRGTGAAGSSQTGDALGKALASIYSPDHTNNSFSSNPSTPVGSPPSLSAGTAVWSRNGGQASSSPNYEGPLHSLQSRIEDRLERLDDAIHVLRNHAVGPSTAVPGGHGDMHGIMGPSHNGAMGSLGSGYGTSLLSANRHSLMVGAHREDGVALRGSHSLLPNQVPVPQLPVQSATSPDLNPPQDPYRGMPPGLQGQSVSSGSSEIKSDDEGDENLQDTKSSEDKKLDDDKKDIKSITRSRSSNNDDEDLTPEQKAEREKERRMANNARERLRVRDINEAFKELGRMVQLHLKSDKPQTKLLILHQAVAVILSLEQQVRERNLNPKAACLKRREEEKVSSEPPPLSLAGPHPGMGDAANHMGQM

Common to all, as to test: affinity purification with mass spectrometry; FLAG-tagged bait (ID1, ID2, ID3, TCF3 or TCF4) transfected into mouse epidermal progenitor cells; precipitated on Sepharose beads with anti-FLAG M2 (IgG as control), washed in TBS, eluted with FLAG peptide (200 ug/ml in TBS), eluate analysed by mass spectrometry; hits scored by lack of signal in the IgG control, coverage and protein score

The target in one test is T1, FLAG-tagged ID2 (UniProt P41136).
T1 sequence: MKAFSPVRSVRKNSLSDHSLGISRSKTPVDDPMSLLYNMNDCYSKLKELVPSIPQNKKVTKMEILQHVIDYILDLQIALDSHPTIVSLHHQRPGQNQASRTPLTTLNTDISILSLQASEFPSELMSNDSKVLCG

Another test deals with T2, FLAG-tagged ID3, P41133.
T2 chain: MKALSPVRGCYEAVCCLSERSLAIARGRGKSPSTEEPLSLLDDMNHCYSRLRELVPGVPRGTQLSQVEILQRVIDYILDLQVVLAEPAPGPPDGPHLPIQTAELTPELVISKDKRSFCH
The conditions noted are these: remark: other sources report otherwise.

The target of a further test is FLAG-tagged TCF4 (UniProt Q60722).

For TCF3 (E2A) (from UniProt P15806 1-651), in the test with FLAG-tagged ID2, the binding result was “no binding”.

B1: TCF3 (E2A), P15806 1-651 (protein)
chain: MMNQSQRMAPVGSDKELSDLLDFSMMFPLPVANGKSRPASLGGTQFAGSGLEDRPSSGSWGSSDQNSSSFDPSRTYSEGAHFSDSHSSLPPSTFLGAGLGGKGSERNAYATFGRDTSVGTLSQAGFLPGELSLSSPGPLSPSGIKSSSQYYPSFPSNPRRRAADGGLDTQPKKVRKVPPGLPSSVYPPSSGDSYSRDAAAYPSAKTPSSAYPSPFYVADGSLHPSAELWSTPSQVGFGPMLGDGSSPLPLAPGSSSVGSGTFGGLQQQDRMGYQLHGSEVNGSLPAVSSFSAAPGTYSGTSGHTPPVSGAAAESLLGTRGTTASSSGDALGKALASIYSPDHSSNNFSPSPSTPVGSPQGLPGTSQWPRAGAPSALSPNYDAGLHGLSKMEDRLDEAIHVLRSHAVGTASDLHGLLPGHGALTTSFTGPMSLGGRHAGLVGGSHPEEGLTSGASLLHNHASLPSQPSSLPDLSQRPPDSYSGLGRAGTTAGASEIKREEKEDEEIASVADAEEDKKDLKVPRTRTSPDEDEDDLLPPEQKAEREKERRVANNARERLRVRDINEAFKELGRMCQLHLSSEKPQTKLLILHQAVAVILSLEQQVRERNLNPKAACLKRREEEKVSGVVGDPQLALSAAHPGLGEAHNPAGHL
As to B1, in the test with FLAG-tagged ID3, P41133, the binding entry is recorded as “no binding”.

B2: ID1 (endogenous) (protein, UniProt P20067 1-168)
chain: MKVASGSAAAAAGPSCSLKAGRTAGEVVLGLSEQSVAISRCAGTRLPALLDEQQVNVLLYDMNGCYSRLKELVPTLPQNRKVSKVEILQHVIDYIRDLQLELNSESEVGTTGGRGLPVRAPLSTLNGEISALAAEVRSESEYYIILQWETEATGGGCPPSLLFRRIAI
Consider B2, for which the binding result with FLAG-tagged TCF4 is recorded as “binds”.

Values taken from article PMC9845743.
